One molecule from publication PMC6955223, “The adaptor proteins HAP1a and GRIP1 collaborate to activate the kinesin-1 isoform KIF5C” (Journal of Cell Science, 2019) can be followed below.

Chains of the proteins cited; added tags and fusions are not shown.
UniProt P97879: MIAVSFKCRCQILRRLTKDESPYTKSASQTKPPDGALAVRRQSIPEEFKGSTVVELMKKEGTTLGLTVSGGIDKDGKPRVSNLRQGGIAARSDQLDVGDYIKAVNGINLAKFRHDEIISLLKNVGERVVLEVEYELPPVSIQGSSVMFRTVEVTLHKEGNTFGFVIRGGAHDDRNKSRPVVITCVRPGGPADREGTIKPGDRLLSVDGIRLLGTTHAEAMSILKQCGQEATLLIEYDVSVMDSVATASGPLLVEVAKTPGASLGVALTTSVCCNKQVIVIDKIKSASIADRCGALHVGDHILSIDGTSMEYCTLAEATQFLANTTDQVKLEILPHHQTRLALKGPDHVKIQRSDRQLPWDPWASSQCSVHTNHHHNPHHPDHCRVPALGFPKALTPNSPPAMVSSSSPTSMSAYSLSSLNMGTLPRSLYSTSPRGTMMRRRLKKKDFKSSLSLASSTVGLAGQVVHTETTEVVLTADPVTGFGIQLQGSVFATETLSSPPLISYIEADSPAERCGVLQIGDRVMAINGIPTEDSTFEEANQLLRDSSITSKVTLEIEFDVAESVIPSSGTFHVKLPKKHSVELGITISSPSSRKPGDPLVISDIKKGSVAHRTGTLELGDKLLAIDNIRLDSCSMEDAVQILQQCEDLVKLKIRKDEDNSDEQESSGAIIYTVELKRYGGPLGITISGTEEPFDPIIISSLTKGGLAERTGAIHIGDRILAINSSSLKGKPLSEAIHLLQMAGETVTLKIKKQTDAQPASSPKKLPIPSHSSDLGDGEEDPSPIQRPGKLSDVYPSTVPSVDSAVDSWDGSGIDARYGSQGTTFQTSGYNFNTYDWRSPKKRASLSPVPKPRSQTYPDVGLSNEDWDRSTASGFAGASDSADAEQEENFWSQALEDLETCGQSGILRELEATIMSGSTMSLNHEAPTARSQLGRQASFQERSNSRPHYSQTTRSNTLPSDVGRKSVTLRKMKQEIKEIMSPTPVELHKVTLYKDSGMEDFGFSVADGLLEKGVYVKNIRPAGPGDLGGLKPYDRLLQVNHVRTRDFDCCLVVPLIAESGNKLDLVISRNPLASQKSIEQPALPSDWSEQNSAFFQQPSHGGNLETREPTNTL

No constants are given. Whether binding was seen depends on the method and setting. In cells and extracts the contact can be indirect. Some entries that bind do so weakly or less than the wild type. Sequences can lack the tags named with a protein.

The target of the experiment is GFP–GRIP1a (glutamate receptor interacting protein 1, splice form a) (UniProt P97879). The experiment can be described thus: co-IP; co-transfected COS cells; extract in IP buffer (50 mM Tris-HCl pH 7.5, 0.5% Triton X-100, 150 mM NaCl, 1 mM EDTA, 1 mM PMSF), 1 µg antibody for 1 h (anti-GFP in Fig. 1G), Protein G–Sepharose, three washes, western blot. For orientation: In western blotting, separated proteins are transferred to a membrane and probed.

B1: HA–HAP1a (huntingtin-associated protein 1, isoform a) (protein, UniProt P54256-2 1-599)
chain: MRPKDQVQSSAGDGTGSGDPATGTPTTQPAADPAPEPSAEPKPAPAQGTGSGQKSGSRTKTGGSFCRSRIRGDSDAPWTRYIFQGPYGPRATGLGTGRAEGIWKTPAAYIGRRPGVSGPERAAFIRELQEALCPNPLPRKKITEDDIKVMLYLLEEKERDLNTAARIGQSLVKQNSVLMEENNKLETMLGSAREEILHLRKQVNLRDDLLQLYSDSDDDEEDEEDEEEEEGEEEEREGQRDQDQQHDHPYGAPKPPPKAETLHHCPQLEALKQKLKLLEEENDHLREEASHLDNLEDKEQMLILECVEQFSEASQQMAELSEVLVLRLEGYERQQKEITQLQAEITKLQQRCQSYGAQTEKLQQQLASEKGVHPESLRAGSHMQDYGSRPRERQEDGKSHRQRSSMPAGSVTHYGYSVPLDALPSFPETLAEELRTSLRKFITDPAYFMERCDTRCREERKKEQGTMPPPPVQDLKPPEDFEAPEELVPEEELGAIEEVGTAEDGPAEETEQASEETEAWEEVEPEVDEATRMNVVVSALEASGLGPSHLDMKYVLQQLSNWQDAHSKRQQKQKVVPKGECSRRGHPPASGTSYRSSTL
For B1, the binding entry is on record as “binds”.
